In paper PMC9613664 one finds binding data, which are given here for one substance.

No constants are given. Whether binding was seen depends on the method and setting. Binding seen in cells or lysates may run through a third protein. Binding can be weak; no strength is given. Tags and fused reporters may be left off the sequences shown.

For this assay, the target named is T1, GST-fused RUNX2 C-terminal fragment (230-499 aa) (UniProt Q13950).
T1 sequence: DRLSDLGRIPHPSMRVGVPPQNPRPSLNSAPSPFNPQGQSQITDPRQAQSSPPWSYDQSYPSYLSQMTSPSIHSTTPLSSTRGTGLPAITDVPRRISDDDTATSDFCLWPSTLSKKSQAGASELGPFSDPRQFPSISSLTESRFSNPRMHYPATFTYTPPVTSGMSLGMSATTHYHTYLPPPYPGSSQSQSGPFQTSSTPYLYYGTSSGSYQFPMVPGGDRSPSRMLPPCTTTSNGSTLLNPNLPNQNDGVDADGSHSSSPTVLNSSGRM
As to the kind of experiment: pull-down; about 5 ug GST-fused protein (from BL21 E. coli) with 25 uL glutathione-Sepharose beads mixed with 40 uL in vitro transcribed/translated product, 4 C, 2 h; five washes with binding buffer; western blot; only the target purified.

As for in vitro transcribed/translated CUL4B, the binding entry is given as “binds”.
